For 25 targets, log2 fold change results are on record in the supplement of paper PMC10849652.

The chains behind the UniProt entries cited, without tags or fusion partners. Where a name states a change or a piece, a line headed by the entry shows the natural chain unless it says otherwise.
UniProt Q9H0K1: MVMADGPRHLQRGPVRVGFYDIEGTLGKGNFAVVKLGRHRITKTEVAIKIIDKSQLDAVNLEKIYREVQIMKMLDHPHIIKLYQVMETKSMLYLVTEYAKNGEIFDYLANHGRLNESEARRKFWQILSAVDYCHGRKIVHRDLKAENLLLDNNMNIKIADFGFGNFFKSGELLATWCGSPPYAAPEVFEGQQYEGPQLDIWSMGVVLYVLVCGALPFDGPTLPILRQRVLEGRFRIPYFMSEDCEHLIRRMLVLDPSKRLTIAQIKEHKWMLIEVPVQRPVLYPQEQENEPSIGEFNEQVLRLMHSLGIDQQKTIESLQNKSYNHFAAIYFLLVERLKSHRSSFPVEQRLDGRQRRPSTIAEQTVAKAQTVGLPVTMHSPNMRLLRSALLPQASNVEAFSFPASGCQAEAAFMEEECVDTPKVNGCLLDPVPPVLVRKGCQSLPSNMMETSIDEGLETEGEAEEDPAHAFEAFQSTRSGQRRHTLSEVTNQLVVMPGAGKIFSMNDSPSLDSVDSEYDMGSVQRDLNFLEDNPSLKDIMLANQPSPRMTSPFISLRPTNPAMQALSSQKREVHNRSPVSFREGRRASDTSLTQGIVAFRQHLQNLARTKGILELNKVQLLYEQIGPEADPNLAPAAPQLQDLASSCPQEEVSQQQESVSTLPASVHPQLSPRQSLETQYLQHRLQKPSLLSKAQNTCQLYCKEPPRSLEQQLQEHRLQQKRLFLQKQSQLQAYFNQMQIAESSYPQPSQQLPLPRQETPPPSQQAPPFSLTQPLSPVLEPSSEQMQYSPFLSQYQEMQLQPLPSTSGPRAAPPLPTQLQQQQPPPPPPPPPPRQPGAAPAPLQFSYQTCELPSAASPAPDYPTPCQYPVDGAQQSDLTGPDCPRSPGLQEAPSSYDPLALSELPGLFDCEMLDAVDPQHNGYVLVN
UniProt P05155: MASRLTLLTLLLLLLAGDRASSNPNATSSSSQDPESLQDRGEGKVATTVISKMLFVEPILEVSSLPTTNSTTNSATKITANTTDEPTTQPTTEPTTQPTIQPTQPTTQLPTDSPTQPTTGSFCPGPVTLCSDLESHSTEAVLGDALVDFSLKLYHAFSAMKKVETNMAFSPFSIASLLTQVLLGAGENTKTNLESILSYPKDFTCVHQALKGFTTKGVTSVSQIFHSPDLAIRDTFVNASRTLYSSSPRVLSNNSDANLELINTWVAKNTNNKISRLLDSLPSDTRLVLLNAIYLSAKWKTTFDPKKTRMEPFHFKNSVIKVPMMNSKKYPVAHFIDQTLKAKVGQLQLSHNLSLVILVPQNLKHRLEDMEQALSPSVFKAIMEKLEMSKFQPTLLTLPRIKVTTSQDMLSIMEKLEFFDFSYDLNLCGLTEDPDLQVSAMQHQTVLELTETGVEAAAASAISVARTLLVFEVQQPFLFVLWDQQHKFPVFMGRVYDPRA
UniProt Q8WV19: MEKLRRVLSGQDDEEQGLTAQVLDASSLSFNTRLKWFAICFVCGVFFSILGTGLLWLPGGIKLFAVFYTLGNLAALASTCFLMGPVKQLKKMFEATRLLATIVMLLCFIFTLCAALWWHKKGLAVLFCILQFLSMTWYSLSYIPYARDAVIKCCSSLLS
UniProt Q02383: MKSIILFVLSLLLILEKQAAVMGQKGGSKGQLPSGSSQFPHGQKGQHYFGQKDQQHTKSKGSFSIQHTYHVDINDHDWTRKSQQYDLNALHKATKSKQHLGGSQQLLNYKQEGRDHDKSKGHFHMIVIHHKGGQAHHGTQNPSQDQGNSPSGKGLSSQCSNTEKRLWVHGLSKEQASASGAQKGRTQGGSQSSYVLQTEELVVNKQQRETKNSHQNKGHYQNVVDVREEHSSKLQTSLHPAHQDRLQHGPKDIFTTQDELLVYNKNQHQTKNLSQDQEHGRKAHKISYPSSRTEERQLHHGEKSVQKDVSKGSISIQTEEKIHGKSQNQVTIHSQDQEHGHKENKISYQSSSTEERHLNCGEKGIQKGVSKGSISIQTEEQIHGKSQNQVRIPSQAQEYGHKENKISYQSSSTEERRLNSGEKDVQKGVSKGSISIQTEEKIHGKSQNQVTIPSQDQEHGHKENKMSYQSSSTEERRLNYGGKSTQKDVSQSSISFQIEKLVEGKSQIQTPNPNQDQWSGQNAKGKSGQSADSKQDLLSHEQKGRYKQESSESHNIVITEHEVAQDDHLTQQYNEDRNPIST
UniProt Q9NZV5, whole entry, looked up: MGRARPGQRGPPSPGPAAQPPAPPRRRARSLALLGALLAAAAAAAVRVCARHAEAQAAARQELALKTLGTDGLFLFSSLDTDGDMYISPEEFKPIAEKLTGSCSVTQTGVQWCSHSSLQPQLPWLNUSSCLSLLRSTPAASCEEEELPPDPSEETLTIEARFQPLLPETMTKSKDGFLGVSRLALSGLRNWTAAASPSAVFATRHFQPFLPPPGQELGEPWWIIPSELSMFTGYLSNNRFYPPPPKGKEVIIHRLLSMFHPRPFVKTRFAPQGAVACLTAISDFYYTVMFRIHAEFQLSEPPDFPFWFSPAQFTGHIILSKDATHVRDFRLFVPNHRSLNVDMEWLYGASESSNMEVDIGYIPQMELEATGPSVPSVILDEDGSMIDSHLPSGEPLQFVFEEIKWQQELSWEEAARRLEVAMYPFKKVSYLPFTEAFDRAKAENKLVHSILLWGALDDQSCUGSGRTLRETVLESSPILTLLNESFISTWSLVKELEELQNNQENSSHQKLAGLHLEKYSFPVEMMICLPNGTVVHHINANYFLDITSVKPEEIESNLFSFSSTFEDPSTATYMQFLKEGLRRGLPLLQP
UniProt O75635: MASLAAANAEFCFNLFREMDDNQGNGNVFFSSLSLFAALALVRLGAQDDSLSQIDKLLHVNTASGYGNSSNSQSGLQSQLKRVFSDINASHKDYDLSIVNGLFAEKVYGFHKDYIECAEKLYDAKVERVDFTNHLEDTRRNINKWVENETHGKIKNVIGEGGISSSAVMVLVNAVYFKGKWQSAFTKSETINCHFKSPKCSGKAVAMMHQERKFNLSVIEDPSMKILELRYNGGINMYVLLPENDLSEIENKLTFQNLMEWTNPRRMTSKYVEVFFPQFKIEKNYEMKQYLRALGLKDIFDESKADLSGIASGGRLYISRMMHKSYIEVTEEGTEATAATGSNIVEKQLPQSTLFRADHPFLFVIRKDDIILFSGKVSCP
UniProt O43255: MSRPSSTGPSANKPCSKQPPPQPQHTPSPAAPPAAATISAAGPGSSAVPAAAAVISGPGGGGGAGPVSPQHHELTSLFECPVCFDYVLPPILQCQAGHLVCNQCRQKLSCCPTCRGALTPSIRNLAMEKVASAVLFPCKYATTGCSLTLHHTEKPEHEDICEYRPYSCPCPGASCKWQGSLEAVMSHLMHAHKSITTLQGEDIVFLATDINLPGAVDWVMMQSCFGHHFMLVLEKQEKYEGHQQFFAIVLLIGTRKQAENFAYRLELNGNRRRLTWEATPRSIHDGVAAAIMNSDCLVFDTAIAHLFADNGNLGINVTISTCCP
UniProt O15304: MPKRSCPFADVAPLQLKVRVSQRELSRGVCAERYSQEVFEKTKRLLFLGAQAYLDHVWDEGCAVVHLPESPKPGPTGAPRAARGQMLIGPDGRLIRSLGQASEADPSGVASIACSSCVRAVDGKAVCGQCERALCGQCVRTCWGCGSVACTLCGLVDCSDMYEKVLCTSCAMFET
UniProt Q86XK3: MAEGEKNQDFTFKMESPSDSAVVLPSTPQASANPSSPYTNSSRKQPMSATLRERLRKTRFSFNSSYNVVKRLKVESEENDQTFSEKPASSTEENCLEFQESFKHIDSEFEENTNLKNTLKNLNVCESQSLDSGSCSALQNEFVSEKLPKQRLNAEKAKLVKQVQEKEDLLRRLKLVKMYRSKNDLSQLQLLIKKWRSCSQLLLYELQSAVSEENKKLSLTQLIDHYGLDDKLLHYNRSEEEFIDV
UniProt Q9NP50: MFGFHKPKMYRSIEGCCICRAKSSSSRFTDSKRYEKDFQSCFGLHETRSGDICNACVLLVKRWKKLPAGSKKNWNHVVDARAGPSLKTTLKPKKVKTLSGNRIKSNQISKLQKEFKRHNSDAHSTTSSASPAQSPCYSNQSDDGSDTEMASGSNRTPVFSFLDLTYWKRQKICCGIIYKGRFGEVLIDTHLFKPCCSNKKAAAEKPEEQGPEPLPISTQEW
UniProt P01011: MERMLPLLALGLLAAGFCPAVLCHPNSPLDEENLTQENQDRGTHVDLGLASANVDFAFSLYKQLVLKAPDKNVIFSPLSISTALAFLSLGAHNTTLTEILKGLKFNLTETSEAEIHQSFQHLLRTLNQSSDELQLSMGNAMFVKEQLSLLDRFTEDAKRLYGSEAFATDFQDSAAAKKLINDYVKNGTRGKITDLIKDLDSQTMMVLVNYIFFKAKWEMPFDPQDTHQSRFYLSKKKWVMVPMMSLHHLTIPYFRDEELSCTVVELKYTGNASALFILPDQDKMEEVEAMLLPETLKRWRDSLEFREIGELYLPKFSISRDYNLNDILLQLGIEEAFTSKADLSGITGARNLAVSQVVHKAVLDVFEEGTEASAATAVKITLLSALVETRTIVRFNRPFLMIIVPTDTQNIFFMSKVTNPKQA
UniProt Q9UPX8: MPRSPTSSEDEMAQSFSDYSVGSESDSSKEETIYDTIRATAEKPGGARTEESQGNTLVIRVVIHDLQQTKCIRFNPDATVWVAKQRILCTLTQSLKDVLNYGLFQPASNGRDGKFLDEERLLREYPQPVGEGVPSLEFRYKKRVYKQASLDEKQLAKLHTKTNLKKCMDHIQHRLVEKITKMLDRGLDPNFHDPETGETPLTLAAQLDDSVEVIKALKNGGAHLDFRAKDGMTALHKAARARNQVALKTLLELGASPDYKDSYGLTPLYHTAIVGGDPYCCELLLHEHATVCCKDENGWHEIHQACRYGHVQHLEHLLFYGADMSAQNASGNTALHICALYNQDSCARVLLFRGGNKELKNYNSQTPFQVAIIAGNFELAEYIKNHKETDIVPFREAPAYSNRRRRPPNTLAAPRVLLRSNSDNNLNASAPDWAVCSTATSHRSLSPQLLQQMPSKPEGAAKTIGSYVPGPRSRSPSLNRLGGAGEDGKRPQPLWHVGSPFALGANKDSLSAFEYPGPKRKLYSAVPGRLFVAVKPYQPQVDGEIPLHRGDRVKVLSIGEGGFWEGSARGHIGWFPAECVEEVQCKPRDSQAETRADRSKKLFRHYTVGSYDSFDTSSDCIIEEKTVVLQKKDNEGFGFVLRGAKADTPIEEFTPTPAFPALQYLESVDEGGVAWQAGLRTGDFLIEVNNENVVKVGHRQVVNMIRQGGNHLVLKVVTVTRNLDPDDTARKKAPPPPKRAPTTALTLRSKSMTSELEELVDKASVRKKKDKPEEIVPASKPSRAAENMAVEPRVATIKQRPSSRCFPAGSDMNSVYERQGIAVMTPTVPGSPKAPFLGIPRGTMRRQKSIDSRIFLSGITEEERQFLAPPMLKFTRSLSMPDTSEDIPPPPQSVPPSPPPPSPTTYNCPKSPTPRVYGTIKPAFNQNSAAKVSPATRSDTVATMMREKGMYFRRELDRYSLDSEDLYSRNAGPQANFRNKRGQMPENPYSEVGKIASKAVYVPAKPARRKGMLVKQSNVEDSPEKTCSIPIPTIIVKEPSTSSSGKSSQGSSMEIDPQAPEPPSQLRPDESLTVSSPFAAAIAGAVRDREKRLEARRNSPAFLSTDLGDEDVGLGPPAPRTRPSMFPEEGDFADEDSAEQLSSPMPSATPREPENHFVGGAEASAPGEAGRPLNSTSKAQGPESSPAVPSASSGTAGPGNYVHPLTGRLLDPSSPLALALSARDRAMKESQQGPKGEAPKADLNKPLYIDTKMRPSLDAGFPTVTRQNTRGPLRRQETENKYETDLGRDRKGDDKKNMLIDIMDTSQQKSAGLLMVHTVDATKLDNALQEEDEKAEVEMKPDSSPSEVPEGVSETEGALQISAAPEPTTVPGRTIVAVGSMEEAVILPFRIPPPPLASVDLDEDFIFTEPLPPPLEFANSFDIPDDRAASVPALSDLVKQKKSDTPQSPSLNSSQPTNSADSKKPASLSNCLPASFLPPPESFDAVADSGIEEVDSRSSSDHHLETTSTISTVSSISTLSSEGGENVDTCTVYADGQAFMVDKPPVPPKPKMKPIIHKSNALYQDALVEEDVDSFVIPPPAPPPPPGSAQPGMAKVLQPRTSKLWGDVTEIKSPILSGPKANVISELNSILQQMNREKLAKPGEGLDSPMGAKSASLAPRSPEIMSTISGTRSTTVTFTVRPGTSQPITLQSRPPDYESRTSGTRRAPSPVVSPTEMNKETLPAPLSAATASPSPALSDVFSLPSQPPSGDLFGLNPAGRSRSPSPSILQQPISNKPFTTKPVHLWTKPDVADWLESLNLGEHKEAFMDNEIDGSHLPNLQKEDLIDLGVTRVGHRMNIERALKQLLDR

Some of the results follow.

Compound in one assay: C#Cc1cccc(Nc2ncnc3cc(OCCOC)c(OCCOC)cc23)c1 [erlotinib]
As to the kind of experiment: log2 fold change, soluble protein after heating vs DMSO (PISA); higher = thermal stabilisation; K562 cells, 10 uM, 30 min; active = over 0.2 and 3.5 SD of the protein, either way, in both replicates (recomputed). In outline:
(§1)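 K562 cells at 2×10^6 cells/mL were given 10 μM compound for 30 min. Aliquots then went through 3 min of heating across 48°C-58°C, were pooled, and were extracted in PBS with 0.5% NP-40 at 4°C, and the supernatant after 21,000xg for 90 min was quantified by TMTpro 16plex LC-MS/MS with channel sums equalised. Thermal stability relative to control samples, from duplicates, is given as log2 fold change.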
Regarding SH2D3A (UniProt Q9BRG2), the log2 fold change was inactive: -0.034.
As for SIK2 (UniProt Q9H0K1), the log2 fold change is inactive: -0.133.
For the target SERPING1 isoform 3 (UniProt P05155), the log2 fold change was inactive: -0.309.

Compound in the next assay: C/C(=N\NC(=O)C1=CC(=CC=C1)S(=O)(=O)N2CCOCC2)/C3=C(C=CC(=C3)Cl)O
The assay is described as above. The essentials:
as §1
Turning to SEPTIN2 (UniProt B5MCX3), the log2 fold change is inactive: -0.226.
SFT2D1 (UniProt Q8WV19): the log2 fold change is inactive: 0.046.
On to SHFL (UniProt Q9NUL5), for which the log2 fold change was inactive: -0.156.
Same read-out and setting: under SHB (UniProt Q15464) stands inactive: 0.129.
On to SF1 (UniProt H7C0N4), for which the log2 fold change is inactive: 0.022.
For SEMG2 (UniProt Q02383), the log2 fold change was inactive: 1.75.
Same read-out and setting: with SIX5 (UniProt Q8N196) the figure was inactive: 0.027; with SELENON (UniProt Q9NZV5), inactive: -0.231; with SHROOM4 (UniProt Q9ULL8), inactive: -0.262.
Turning to SERPINB7 (UniProt O75635), the log2 fold change was inactive: -0.354.
Same read-out and setting: under SETD2 (UniProt Q9BYW2) stands inactive: -0.063; under SHC1 (UniProt P29353), inactive: 0.032; under SIAH2 (UniProt O43255), inactive: 0.014.

Compound in another assay: C1=CC(=C(C=C1Cl)C2=NC3=NC=CN=C3C(=N2)NC4=CC=NC=C4)F
The description is as above. In outline:
as §1
As to SIVA1 (UniProt O15304), the log2 fold change is inactive: -0.326.
Turning to SHFL (UniProt Q9NUL5), the log2 fold change was inactive: -0.094.
Consider SFR1 isoform 2 (UniProt Q86XK3), for which the log2 fold change was inactive: 0.026.
Still for that read-out and setting: with SINHCAF (UniProt Q9NP50) the figure was inactive: -0.142; with SERPINB6, A0A2R8Y7E5, inactive: -0.058.
Still for that read-out and setting: under SKA1 (UniProt Q96BD8) stands inactive: -0.234; under SERPINA12 (UniProt Q8IW75), inactive: -0.131.
Take SEMG2 (UniProt Q02383): the log2 fold change is inactive: 0.047.
SEMA7A (UniProt O75326): the log2 fold change is inactive: -0.205.
The same measure, in the same setting: with SERPINA3 (UniProt P01011) the figure was inactive: 0.034.
Same read-out and setting: under SHANK2 isoform 3 (UniProt Q9UPX8) stands inactive: -0.082.

Compound in another assay: C1=CC(=CC=C1C2=NC3=C(N2)C=C(C=C3)C(=O)N)OC4=CC=C(C=C4)Cl
The assay is described as above. The essentials:
as §1
SH2D3A (UniProt Q9BRG2): the log2 fold change was inactive: 0.048.
The same measure, in the same setting: with SIK2 (UniProt Q9H0K1) the figure was inactive: 0.126.
As for SERPING1 isoform 3 (UniProt P05155), the log2 fold change was inactive: 0.292.

Compound in another assay: C1=CC2=C(C=CC(=C2)/C=C\3/C(=O)NC(=NCC4=CC=CS4)S3)N=C1
The assay is described as above. In outline: as §1
SEPTIN2 (UniProt B5MCX3): the log2 fold change was inactive: 0.263.
Regarding SFT2D1 (UniProt Q8WV19), the log2 fold change is inactive: 0.008.
The same measure, in the same setting: under SHFL (UniProt Q9NUL5) stands inactive: 0.244; under SHB (UniProt Q15464), inactive: 0.019.
Same read-out and setting: with SF1 (UniProt H7C0N4) the figure was inactive: -0.148.
For SEMG2 (UniProt Q02383), the log2 fold change is inactive: 0.237.
On the same count and under the same terms, under SIX5 (UniProt Q8N196) stands inactive: -0.043; under SELENON (UniProt Q9NZV5), inactive: 0.098; under SHROOM4 (UniProt Q9ULL8), inactive: -0.165.
With SERPINB7 (UniProt O75635), the log2 fold change is inactive: 0.167.
On the same count and under the same terms, under SETD2 (UniProt Q9BYW2) stands inactive: -0.049; under SHC1 (UniProt P29353), inactive: 0.083; under SIAH2 (UniProt O43255), inactive: 0.087.
